PubChem BioAssay AID504834 (National Center for Advancing Translational Sciences (NCATS), 2011)
Out of some 320,000 compounds screened, about 22,000 (6.9%) were called active. Inconclusive results, whose numbers are uncertain, are shown with a selection of clear calls. The call rests on the fitted dose curve; in most records, active means well fitted inhibition curve with a large enough effect; inconclusive means small, poorly fitted or top-dose-only effect, or another doubt; inactive means no such curve, though single readings can be large or run the other way. Potencies beside an inconclusive call are fits to weak or partial responses and may not hold up.

experiment: Primary qHTS for delayed death inhibitors of the malarial parasite plastid, 96 hour incubation; settings: P. falciparum luciferase reporter growth; series mostly up to 28.7 µM; activity change, negative = inhibition: at the top concentration
Description: The goal of this screen is to discover new antimalarial compounds that act by inhibiting the development of the apicoplast in the malarial parasite Plasmodium falciparum. The biochemical processes that make this organelle essential for erythrocytic stage parasites are not well understood. However, antibiotics such as azithromycin and tetracycline, which target the apicoplast translational machinery, have a potent antimalarial effect.
We have developed a cell-based assay that measures parasite growth based on the expression of an integrated copy of a firefly luciferase reporter. To detect small molecules that cause this "delayed death" phenotype, erythrocytes infected with the luciferase-expressing parasites were incubated with compounds for either one or two generations, corresponding to 48 and 96 hours, respectively. Compounds that inhibit parasite growth in the second generation, but not the first, should be enriched in antimalarials that target the apicoplast. Growth inhibition is detected by a decrease in luciferase activity.
Assay Provider: David Fidock and Eric Ekland, Columbia University
Keywords: NIH Roadmap, MLPCN, MLI, MLSMR, qHTS, NCGC, qHTS, malaria, luciferase, viability
Four microliters of infected erythrocytes (2% hematocrit, 0.05% parasitemia final concentration) in culture medium were dispensed and the plates incubated for 96 hours at 37 C in 5% CO2. Two microliters of luciferase detection reagent was added and luminescence was detected by a ViewLux (PerkinElmer) reader.
On the % scale 0 is the no-effect control and ±100 the full control effect; potency means the concentration at half of the fitted maximal effect.

Row | Structure (SMILES) | Potency | activity change, negative = inhibition
1 | Cc1[nH]nc(N=CC2=C(O)CC(c3ccco3)CC2=O)c1-c1ccccc1 (stereo not drawn) | active: 7.38 µM | 
2 | COC(=O)c1c(N2C(=O)[C@H]3[C@@H](C2=O)[C@]2(C(=O)Nc4ccccc42)N2CCC[C@@H]32)sc(C)c1C | inconclusive: 18.5 µM [inhibitor, single point] | 
3 | CS(=O)(=O)N(CC(=O)N1CCOCC1)c1cccc(F)c1 | inconclusive: 9.28 µM [inhibitor, single point] | 
4 | Cc1cc(C)c(NC(=O)CN(CC(=O)O)CC(=O)O)c(C)c1Br | active: 3.38 µM | 
5 | CCOc1ccc(CCNS(=O)(=O)c2ccc(-c3ccc(=O)[nH]n3)o2)cc1OCC |  | inactive: 14.9%
6 | CCC(C)C(=O)Nc1nnc(SCC(=O)Nc2ccc(F)cc2)s1 (stereo not drawn) |  | inactive: 12.4%
7 | Cc1ccc(N2C(=O)c3cccc4c([N+](=O)[O-])ccc(c34)C2=O)c2cccnc12 | inconclusive: 0.147 µM [inhibitor, full curve, poor fit] | 
8 | O=C(c1ccccc1)c1ccc(OCC(=O)N2CCOCC2)cc1 |  | inactive: 46.4%
9 | COc1ccc(NC(=S)N2CCN(C(=O)c3ccco3)CC2)cc1 | active: 0.465 µM | 
10 | CC(C)Oc1ccc(C2c3c(oc4ccccc4c3=O)C(=O)N2CCCN2CCOCC2)cc1 (stereo not drawn) | inconclusive: 0.104 µM [inhibitor, full curve, poor fit] | 
11 | Fc1ccc(NC(=S)NN=C2CCCCCC2)cc1 | inconclusive: 2.62 µM [inhibitor, full curve, poor fit] | 
12 | COc1ccc(NS(=O)(=O)c2ccc3oc(SCC(N)=O)nc3c2)cc1 |  | inactive: -25%
13 | O=C(CCCn1c(=O)c2cccn2c2cccnc21)NCCc1ccc(Cl)cc1 | inconclusive: 11.7 µM [inhibitor, single point] | 
14 | COc1ccnc2c1c(=O)n(Cc1cccc(F)c1)c(=O)n2C |  | inactive: -18.2%
15 | O=C(NN1C(=O)C2C(c3ccccc3)C=CC(c3ccccc3)C2C1=O)c1ccccc1 (stereo not drawn) |  | inactive: -0.991%
16 | Nc1c(C(=O)OC2CCCCC2)c2nc3ccccc3nc2n1CC1CCCO1 (stereo not drawn) | active: 13.1 µM | 
17 | COc1ccc(C(=O)NCCc2ccc(Cl)cc2)cc1S(=O)(=O)N1CCCCC1C (stereo not drawn) | inconclusive: 11.7 µM [inhibitor, partial curve, poor fit] | 
18 | COc1ccc(NS(=O)(=O)c2nnc(NC(=O)c3ccccc3F)s2)cc1 | inconclusive: 10.4 µM [inhibitor, partial curve, poor fit] | 
19 | CC(=O)Nc1ccc(C(=O)OCC(=O)NC(=O)NC(C)(C)C)cc1 | inconclusive: 0.0465 µM [inhibitor, full curve, poor fit] | 
20 | O=C(c1ccc([N+](=O)[O-])cc1Cl)N1CCN(c2ccccn2)CC1 |  | inactive: -4.64%
21 | Cc1ccc(C(=O)Cn2c(C(=O)O)cc3ccccc32)cc1 |  | inactive: 38.9%
22 | COc1cc(C(=O)NCC(c2ccco2)N(C)C)cc(OC)c1OC (stereo not drawn) | inconclusive: 9.28 µM [inhibitor, partial curve, poor fit] | 

Row | Structure (SMILES) | Potency | activity change, negative = inhibition
23 | CCCCOP(=O)(c1ccc(N(C)C)cc1)C(O)c1c(Cl)cccc1Cl (stereo not drawn) | inconclusive: 18.5 µM [inhibitor, single point] | 
24 | Cc1nnc(SC(C)C(=O)NC2CCCc3ccccc32)n1-c1ccccc1 (stereo not drawn) | inconclusive: 18.5 µM [inhibitor, single point] | 
25 | Cc1ccccc1C(=O)NC(=S)Nc1ccc(S(=O)(=O)N2CCOCC2)cc1 | inconclusive: 10.4 µM [inhibitor, single point] | 
26 | O=C(CCc1ccc(S(=O)(=O)N2CCOCC2)cc1)Nc1nccs1 | inconclusive: 5.86 µM [inhibitor, partial curve, poor fit] | 
27 | COc1ccccc1N1CCN(CCCCN2C(=O)C3CCCCN3C2=O)CC1 (stereo not drawn) | active: 8.28 µM | 
28 | COc1ccc(N2C(=O)C(CC(=O)Nc3ccccc3)N(Cc3ccc4c(c3)OCO4)C2=O)cc1 (stereo not drawn) | inconclusive: 18.5 µM [inhibitor, single point] | 
29 | Cc1ccsc1C(=O)N1CCN(S(=O)(=O)c2cccs2)CC1 | inconclusive: 3.7 µM [inhibitor, partial curve, poor fit] | 
30 | CCc1c(C)nc(SCC(=O)Nc2ccc(Br)cc2)[nH]c1=O | inconclusive: 9.28 µM [inhibitor, partial curve, poor fit] | 
31 | O=P1(Oc2ccccc2)C[C@@H](O)[C@@H](O)[C@H](COCc2ccccc2)O1 (stereo partly drawn) | inconclusive: 10.4 µM [inhibitor, single point] | 
32 | COc1cccc(CN2CCCC(C(=O)c3ccc4c(c3)OCO4)C2)c1OC (stereo not drawn) | inconclusive: 4.15 µM [inhibitor, single point] | 
33 | C/C(=N/NS(=O)(=O)c1ccc(Cl)cc1)c1ccncc1 | inconclusive: 10.4 µM [inhibitor, single point] | 
34 | COc1ccc(C2CC(c3ccc(OC)cc3)n3nc(NC(=O)c4ccco4)nc3N2)cc1 (stereo not drawn) | inconclusive: 14.7 µM [inhibitor, single point] | 
35 | O=[N+]([O-])c1ccccc1-c1cc(-c2ccccc2)cc(-c2ccccc2)[n+]1Cc1ccccc1Cl | inconclusive: 0.522 µM [inhibitor, full curve] | 
36 | CCOC(=O)N1CCN(C(=O)Nc2ccc3nc(C)c(C)nc3c2)CC1 |  | inactive: 10.6%
37 | Cc1cccc(NC(=O)CSc2cccc3cccnc23)c1 | inconclusive: 8.28 µM [inhibitor, partial curve] | 
38 | COc1ccccc1NC(=O)N1CCCC1C(=O)NCCc1ccccc1 (stereo not drawn) | inconclusive: 0.928 µM [inhibitor, partial curve, poor fit] | 
39 | Cc1ccc(COc2ccc(/C=N/NC(=O)c3ccc(CN4CCOCC4)cc3)cc2)cc1 | inconclusive: 18.5 µM [inhibitor, single point] | 
40 | CCC1(c2ccccc2)C(=O)NC(=O)N(C)C1=O (stereo not drawn) | active: 15.1 µM | 
41 | Cc1ccc(S(=O)(=O)N2CCCCC2)cc1NC(=O)Cn1cnc2c1c(=O)n(C)c(=O)n2C | inconclusive: 7.38 µM [inhibitor, partial curve, poor fit] | 
42 | CC(=O)c1cccc(CN2CCCCC2C(=O)Nc2ccc(Oc3ccccc3)nc2)c1 (stereo not drawn) |  | inactive: -13.3%
43 | COc1ccc(C2c3c(-c4ccccc4O)n[nH]c3C(=O)N2Cc2ccco2)cc1 (stereo not drawn) | active: 9.28 µM | 

Record cards, as listed above.
COc1ccc(C2CC(c3ccc(OC)cc3)n3nc(NC(=O)c4ccco4)nc3N2)cc1 (stereo not drawn) in the list: Potency: inconclusive: 14.7 µM [inhibitor, single point]
CCOC(=O)N1CCN(C(=O)Nc2ccc3nc(C)c(C)nc3c2)CC1 in the list: activity change, negative = inhibition: inactive: 10.6%
